# Earlier results as cited in US20170210810A1, “BIOMARKER PROFILES FOR PREDICTING OUTCOMES OF CANCER THERAPY WITH ERBB3 INHIBITORS AND/OR CHEMOTHERAPIES” (Merrimack Pharmaceuticals, Inc., priority 2013, published 2017).
# Conditions: cited from earlier work
compound,measurement,value
"CC(=O)O[C@H]1C(=O)[C@@]2(C)[C@H]([C@H](OC(=O)c3ccccc3)[C@]3(O)C[C@H](OC(=O)[C@H](O)[C@@H](NC(=O)c4ccccc4)c4ccccc4)C(C)=C1C3(C)C)[C@]1(OC(C)=O)CO[C@@H]1C[C@@H]2O [paclitaxel, Paclitaxel, reference compound]",solubility in water,insoluble
